Test results from paper PMC11291904.
No constants are given. Whether binding was seen depends on the method and setting. In cells and extracts the contact can be indirect. Some binding calls cover weakened binding; strength is not graded here. For some assays here: Where a sequence is shown, tags or fusion partners need not be part of it.

Chains of the proteins cited; added tags and fusions are not shown.
UniProt O94874: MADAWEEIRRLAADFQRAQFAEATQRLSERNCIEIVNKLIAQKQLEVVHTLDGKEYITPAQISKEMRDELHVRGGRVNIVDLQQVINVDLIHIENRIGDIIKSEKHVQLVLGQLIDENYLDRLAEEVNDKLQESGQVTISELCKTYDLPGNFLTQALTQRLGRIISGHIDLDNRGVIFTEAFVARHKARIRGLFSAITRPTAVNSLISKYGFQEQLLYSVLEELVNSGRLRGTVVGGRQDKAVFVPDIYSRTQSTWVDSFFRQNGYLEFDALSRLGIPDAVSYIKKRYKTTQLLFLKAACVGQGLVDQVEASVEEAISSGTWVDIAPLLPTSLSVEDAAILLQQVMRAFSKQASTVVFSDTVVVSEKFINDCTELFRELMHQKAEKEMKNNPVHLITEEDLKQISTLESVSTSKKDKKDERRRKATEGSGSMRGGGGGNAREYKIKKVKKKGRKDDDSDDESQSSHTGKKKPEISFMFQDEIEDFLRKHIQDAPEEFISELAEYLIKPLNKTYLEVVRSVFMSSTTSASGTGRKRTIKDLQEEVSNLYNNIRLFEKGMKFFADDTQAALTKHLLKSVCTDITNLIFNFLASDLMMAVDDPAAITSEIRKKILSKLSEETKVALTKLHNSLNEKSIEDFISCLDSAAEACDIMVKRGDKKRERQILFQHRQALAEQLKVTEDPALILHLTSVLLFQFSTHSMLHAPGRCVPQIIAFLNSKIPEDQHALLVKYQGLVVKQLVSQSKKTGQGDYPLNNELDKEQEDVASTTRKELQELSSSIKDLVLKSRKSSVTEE
UniProt P52732: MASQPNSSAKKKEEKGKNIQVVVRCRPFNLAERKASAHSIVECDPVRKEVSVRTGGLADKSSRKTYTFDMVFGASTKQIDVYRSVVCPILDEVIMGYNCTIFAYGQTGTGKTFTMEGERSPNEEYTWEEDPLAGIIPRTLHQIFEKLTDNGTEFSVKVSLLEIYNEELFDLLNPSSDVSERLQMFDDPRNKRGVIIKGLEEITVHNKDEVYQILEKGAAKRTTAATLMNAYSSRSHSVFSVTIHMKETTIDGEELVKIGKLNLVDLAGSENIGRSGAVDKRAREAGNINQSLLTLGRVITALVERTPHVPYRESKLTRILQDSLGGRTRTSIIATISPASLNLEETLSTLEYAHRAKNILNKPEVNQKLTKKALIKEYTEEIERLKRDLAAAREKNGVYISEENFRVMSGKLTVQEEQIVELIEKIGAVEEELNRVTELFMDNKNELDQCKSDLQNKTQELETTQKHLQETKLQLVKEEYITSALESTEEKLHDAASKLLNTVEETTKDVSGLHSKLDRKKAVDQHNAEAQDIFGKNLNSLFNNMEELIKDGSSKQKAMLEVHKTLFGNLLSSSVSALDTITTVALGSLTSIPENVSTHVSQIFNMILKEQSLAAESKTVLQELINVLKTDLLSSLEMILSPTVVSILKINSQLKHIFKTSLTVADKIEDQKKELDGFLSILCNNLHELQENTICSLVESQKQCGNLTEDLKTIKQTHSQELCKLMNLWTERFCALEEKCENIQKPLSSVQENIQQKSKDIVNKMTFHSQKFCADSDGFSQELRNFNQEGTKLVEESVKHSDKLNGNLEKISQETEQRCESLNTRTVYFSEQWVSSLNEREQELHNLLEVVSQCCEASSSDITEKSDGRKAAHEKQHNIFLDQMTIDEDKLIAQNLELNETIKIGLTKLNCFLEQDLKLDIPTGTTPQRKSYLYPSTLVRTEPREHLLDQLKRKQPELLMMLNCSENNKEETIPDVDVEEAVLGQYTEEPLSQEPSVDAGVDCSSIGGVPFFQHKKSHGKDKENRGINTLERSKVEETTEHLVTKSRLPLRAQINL

Tests used:
[1] = target: HA-UFL1 (UniProt O94874); test: co-IP; Flag-Eg5, HA-UFL1 or HA-DDRGK1 expressed in HEK293T cells, respectively; lysates precipitated with anti-Flag or anti-HA beads; western blot
[2] = target: T1, HA-DDRGK1 (UniProt Q96HY6); test: as above
T1 sequence: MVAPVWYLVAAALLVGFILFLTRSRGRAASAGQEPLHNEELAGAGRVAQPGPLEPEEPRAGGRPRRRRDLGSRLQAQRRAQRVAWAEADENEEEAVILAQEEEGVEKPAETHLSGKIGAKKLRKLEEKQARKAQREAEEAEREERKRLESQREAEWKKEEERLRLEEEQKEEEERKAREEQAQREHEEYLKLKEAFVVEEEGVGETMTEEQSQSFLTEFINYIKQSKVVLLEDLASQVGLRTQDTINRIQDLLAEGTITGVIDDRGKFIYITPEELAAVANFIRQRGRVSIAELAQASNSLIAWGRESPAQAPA

Substance: Kinesin-5 (Eg5), endogenous (from UniProt P52732 1-1056)
- binding [1]: binds
- binding [2]: binds
